# This is one part of the list. The data scatter; read single values as rough.
# By UniProt entry, the sequences of proteins in these tests, tags left out. Where a name states a change or a piece, a line headed by the entry shows the natural chain unless it says otherwise. Residues count along the entry.
# UniProt Q8NBN7: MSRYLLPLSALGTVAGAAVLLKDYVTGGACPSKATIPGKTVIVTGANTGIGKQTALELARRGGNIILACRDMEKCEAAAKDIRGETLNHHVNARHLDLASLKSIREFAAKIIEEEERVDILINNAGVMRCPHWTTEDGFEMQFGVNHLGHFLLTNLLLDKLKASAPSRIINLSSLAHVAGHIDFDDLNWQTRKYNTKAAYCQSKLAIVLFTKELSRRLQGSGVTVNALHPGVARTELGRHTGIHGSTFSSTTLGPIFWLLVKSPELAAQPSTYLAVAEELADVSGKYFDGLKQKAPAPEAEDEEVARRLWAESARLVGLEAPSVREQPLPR
# UniProt Q4ADV7, 408-429: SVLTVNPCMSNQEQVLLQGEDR
# UniProt Q6R327, whole entry, looked up: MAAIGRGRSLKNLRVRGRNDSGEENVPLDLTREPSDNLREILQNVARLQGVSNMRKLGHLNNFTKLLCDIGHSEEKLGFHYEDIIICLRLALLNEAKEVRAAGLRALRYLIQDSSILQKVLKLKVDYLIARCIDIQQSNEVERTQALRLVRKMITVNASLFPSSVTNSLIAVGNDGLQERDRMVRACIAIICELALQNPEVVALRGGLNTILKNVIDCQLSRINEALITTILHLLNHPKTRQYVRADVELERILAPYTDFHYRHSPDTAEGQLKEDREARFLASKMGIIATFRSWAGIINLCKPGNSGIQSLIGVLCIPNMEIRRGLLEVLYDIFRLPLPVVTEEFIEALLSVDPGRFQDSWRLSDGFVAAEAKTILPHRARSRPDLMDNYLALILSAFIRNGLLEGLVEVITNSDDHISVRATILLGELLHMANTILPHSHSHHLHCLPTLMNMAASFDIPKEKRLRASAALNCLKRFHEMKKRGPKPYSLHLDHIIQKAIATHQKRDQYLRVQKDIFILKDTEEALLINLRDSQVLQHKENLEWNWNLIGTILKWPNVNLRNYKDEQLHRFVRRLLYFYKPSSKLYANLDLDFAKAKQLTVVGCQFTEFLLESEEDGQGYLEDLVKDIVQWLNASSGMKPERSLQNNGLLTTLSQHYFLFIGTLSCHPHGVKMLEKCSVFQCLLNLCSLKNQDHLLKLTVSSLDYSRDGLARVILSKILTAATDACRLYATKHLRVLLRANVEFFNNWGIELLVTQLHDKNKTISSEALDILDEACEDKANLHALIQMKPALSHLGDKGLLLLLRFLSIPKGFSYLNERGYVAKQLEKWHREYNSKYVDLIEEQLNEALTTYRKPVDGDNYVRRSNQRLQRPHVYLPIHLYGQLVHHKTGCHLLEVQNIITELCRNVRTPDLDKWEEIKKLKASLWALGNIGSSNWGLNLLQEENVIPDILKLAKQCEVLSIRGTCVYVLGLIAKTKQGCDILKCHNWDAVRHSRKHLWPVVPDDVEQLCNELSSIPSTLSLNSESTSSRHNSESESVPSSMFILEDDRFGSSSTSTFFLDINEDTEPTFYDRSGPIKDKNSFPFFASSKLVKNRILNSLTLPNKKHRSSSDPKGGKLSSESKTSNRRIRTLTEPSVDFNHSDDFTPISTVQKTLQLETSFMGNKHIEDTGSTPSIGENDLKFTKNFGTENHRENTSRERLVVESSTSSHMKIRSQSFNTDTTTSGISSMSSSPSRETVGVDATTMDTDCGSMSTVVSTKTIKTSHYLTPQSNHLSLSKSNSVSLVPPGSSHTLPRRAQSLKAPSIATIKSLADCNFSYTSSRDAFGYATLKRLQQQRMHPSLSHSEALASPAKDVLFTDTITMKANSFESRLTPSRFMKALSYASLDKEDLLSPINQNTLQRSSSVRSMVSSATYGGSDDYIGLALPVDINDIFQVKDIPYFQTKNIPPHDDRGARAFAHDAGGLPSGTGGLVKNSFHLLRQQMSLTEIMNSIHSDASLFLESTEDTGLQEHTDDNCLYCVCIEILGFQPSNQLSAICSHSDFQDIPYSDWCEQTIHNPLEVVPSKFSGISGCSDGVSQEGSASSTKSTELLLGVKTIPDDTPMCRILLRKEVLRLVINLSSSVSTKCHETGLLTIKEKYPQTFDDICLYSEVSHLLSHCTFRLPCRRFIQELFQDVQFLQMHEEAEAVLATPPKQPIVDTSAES
# UniProt Q6R327, 1570-1590: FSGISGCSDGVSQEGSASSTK
# UniProt Q6ZS17: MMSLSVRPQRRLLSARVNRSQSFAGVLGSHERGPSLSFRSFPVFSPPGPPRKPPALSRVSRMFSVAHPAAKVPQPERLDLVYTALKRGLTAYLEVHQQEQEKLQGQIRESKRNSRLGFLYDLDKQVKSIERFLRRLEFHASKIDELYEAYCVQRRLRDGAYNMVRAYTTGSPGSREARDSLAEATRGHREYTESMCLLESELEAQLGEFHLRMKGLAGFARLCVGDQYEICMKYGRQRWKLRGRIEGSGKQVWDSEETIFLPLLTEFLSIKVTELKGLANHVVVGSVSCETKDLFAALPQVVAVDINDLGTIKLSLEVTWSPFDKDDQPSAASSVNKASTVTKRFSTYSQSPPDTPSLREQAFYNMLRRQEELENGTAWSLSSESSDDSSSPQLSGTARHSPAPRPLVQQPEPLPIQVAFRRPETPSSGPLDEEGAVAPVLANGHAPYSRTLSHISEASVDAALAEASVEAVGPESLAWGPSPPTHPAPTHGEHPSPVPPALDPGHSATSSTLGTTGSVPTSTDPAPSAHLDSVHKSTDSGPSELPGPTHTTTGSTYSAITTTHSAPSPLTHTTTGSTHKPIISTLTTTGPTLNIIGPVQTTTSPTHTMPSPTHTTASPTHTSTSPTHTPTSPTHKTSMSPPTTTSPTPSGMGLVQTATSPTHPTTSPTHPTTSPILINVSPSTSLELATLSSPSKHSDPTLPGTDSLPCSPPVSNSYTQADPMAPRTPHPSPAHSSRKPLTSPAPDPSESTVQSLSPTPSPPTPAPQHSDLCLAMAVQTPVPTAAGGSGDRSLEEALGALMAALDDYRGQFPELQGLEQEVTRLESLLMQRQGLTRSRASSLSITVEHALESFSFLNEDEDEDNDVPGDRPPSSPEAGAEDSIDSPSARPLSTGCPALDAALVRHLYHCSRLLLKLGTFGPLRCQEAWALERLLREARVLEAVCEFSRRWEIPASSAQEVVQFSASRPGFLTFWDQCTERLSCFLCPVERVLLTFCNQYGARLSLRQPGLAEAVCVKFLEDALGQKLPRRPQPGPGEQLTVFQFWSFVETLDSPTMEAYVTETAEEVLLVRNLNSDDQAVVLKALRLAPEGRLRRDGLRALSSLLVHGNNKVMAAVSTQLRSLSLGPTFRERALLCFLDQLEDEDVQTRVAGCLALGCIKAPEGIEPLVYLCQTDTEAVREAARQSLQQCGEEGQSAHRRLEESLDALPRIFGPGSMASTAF
# UniProt O94762, 456-475: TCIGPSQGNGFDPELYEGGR
# UniProt Q7Z5J4: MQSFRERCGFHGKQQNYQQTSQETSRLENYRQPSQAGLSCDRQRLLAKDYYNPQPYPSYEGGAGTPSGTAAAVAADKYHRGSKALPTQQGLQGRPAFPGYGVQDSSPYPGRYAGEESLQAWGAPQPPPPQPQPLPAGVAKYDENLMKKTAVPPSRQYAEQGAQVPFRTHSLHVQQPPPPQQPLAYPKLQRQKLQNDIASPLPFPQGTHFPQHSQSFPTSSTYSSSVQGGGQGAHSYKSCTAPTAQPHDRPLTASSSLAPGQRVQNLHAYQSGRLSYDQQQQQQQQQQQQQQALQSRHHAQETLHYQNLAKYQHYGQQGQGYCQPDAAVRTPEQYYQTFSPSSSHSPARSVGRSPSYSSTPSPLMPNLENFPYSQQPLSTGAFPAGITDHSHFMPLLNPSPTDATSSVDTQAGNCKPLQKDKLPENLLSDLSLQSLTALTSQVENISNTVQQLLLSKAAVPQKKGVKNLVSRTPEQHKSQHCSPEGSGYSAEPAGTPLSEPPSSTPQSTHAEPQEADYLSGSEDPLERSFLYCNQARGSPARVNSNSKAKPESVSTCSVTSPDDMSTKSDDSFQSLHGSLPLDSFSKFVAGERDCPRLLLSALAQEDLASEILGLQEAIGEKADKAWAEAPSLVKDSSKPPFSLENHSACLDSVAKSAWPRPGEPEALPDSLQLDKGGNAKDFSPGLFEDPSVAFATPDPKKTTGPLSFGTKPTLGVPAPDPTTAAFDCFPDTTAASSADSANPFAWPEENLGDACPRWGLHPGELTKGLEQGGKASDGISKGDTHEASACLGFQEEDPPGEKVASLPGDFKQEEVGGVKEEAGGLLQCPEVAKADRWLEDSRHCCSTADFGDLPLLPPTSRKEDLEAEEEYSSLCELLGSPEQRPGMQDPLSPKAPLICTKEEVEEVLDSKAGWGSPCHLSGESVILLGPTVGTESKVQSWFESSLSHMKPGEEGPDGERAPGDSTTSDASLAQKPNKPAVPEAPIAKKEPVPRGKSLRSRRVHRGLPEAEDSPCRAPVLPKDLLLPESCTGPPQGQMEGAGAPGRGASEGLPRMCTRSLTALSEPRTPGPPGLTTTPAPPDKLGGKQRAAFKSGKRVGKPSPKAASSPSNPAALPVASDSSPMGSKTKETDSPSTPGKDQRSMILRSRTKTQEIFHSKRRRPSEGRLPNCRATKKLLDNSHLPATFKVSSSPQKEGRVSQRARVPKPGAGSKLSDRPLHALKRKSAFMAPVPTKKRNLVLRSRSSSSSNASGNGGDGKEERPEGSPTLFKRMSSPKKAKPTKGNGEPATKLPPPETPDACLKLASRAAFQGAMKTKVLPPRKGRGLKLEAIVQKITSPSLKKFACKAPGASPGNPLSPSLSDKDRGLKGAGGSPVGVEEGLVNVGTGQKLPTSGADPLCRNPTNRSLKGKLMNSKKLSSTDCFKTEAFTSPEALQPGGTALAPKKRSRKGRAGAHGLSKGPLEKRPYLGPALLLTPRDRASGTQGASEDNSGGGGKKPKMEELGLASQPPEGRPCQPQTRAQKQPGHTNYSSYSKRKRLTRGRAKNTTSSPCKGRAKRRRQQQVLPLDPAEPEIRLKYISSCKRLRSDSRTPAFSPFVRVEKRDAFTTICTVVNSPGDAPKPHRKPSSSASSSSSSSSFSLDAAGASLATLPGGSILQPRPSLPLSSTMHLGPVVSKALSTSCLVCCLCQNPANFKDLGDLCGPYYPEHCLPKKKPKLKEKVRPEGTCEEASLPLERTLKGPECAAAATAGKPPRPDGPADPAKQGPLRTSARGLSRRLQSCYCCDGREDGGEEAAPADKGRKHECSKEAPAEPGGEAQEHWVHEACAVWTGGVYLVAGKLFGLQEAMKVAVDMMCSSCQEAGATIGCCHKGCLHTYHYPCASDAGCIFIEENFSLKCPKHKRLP
# UniProt Q9P0K7: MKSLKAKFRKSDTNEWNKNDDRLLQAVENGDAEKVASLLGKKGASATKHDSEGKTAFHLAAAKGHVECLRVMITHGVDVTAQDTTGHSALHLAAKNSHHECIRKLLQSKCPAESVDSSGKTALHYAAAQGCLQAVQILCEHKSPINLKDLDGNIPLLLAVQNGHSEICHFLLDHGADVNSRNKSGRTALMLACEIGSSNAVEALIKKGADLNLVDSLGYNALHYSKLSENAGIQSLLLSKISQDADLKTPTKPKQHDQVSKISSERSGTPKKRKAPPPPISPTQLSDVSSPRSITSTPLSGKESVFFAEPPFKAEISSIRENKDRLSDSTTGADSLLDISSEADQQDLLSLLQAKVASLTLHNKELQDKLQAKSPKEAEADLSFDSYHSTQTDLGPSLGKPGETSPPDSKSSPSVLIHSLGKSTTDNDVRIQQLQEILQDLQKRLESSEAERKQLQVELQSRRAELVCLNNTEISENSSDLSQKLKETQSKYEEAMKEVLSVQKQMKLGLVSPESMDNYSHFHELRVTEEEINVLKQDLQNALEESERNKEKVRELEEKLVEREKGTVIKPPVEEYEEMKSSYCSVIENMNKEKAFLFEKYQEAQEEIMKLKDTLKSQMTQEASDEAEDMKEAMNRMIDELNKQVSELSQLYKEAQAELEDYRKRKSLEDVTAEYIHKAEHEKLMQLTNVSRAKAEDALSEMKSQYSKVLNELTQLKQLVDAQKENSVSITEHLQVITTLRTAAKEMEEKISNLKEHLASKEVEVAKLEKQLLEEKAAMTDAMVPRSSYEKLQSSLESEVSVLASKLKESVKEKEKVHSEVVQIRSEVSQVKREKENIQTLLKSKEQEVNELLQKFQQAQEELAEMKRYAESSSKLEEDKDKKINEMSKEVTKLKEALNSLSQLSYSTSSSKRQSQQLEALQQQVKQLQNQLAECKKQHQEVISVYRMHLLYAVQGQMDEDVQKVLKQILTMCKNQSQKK
# UniProt P78406: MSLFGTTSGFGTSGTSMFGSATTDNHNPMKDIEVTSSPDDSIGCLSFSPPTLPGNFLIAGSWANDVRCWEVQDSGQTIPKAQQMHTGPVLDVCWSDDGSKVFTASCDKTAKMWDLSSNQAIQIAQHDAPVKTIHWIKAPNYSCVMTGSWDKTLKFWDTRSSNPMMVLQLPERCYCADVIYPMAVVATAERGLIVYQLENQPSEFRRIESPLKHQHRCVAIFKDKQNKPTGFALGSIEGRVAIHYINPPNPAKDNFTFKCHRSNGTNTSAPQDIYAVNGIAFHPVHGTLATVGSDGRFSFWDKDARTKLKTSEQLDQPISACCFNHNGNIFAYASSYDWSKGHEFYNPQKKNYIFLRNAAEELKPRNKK
# Legend:
# [1] = compound: ClCC(=O)N[C@@H]1CCCc2ccccc12; assay: log2 mean competition ratio of IA-DTB cysteine labelling (DMSO/compound) (log2 ratio); higher = stronger cysteine engagement by compound; details: treatment time: 4 h, cell line lysate: HEK293T
# Protocol: (§1)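 IA-DTB competitive cysteine chemoproteomics in HEK293T RIPA lysate. Lysates were treated with compound 29 or 30 at 50 or 200 µM for 4 h, then IA-DTB (500 µM, 1 h), trypsin-digested, NeutrAvidin-enriched and analysed by diaPASEF. Competition ratio = intensity DMSO / intensity compound (n=4 treated, n=64 DMSO); binding: mean log2 CR ≥ 1 and p ≤ 0.05 plus QC filters. Target is the cysteine site.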
# [2] = compound: ClCC(=O)N[C@H]1CCCc2ccccc12; assay: as above; details: treatment time: 4 h, cell line lysate: HEK293T
# Protocol: as §1
Target,log2 mean competition ratio ([1]; 50 µM),log2 mean competition ratio ([1]; 200 µM),log2 mean competition ratio ([2]; 50 µM),log2 mean competition ratio ([2]; 200 µM)
RDH13 C201 (UniProt Q8NBN7),-0.114,-0.118,-0.0476,-0.19
RIC1 C415 (UniProt Q4ADV7),0.0479,-0.0494,1.53,-0.179
RB1CC1 C81 (UniProt Q8TDY2),-0.0862,-0.0907,-0.174,0.246
RELCH C624 (UniProt Q9P260),0.15,-0.217,0.132,-0.166
RANBP2 C2710 (UniProt P49792),-0.0601,0.0685,-0.0538,0.332
RHOC C16 (UniProt P08134),-0.00802,-0.226,0.546,-0.0122
RICTOR C1631 (UniProt Q6R327),0.165,0.342,-0.451,0.196
RCHY1 C136 (UniProt Q96PM5),0.132,-0.254,0.634,0.153
RCCD1 C42 (UniProt A6NED2),-0.288,0.049,-0.403,0.0922
RARA C148,-0.0704,-0.0551,0.0251,0.0228
RBM25 C795 (UniProt P49756),-0.164,-0.271,0.553,-0.489
RALGAPA1 C293 (UniProt Q6GYQ0),-0.2,0.053,-0.0073,0.136
RBM27 C49 (UniProt Q9P2N5),0.552,0.0145,0.325,0.0751
RBM28 C97 (UniProt Q9NW13),-0.0506,0.293,-0.428,-0.0815
RIPOR1 C925 (UniProt Q6ZS17),0.609,0.562,-0.0721,0.318
RANBP2 C2696 (UniProt P49792),0.211,0.191,0.0229,0.215
RECQL5 C457 (UniProt O94762),-0.0255,0.19,-0.162,0.353
RAP1B C118,-0.265,0.276,-0.609,0.316
RARS1 C312,-0.149,-0.154,0.531,0.112
RB1 C278 (UniProt P06400),-0.255,-0.34,0.723,0.205
RNASEH1 C191 (UniProt O60930),0.216,0.124,0.3,0.0976
RAI1 C1553 (UniProt Q7Z5J4),0.165,0.0514,-0.0362,-0.0119
RANBP2 C3040 (UniProt P49792),0.117,-0.132,-0.134,-0.0819

# An excerpt taken from the entries so far, for reference:
Target,log2 mean competition ratio ([1]; 50 µM),log2 mean competition ratio ([1]; 200 µM),log2 mean competition ratio ([2]; 50 µM),log2 mean competition ratio ([2]; 200 µM)
RELCH C624 (UniProt Q9P260),0.15,-0.217,0.132,-0.166
RANBP2 C2710 (UniProt P49792),-0.0601,0.0685,-0.0538,0.332
RHOC C16 (UniProt P08134),-0.00802,-0.226,0.546,-0.0122
RICTOR C1631 (UniProt Q6R327),0.165,0.342,-0.451,0.196
RCHY1 C136 (UniProt Q96PM5),0.132,-0.254,0.634,0.153
RCCD1 C42 (UniProt A6NED2),-0.288,0.049,-0.403,0.0922
RARA C148,-0.0704,-0.0551,0.0251,0.0228
RBM25 C795 (UniProt P49756),-0.164,-0.271,0.553,-0.489
RALGAPA1 C293 (UniProt Q6GYQ0),-0.2,0.053,-0.0073,0.136
RBM27 C49 (UniProt Q9P2N5),0.552,0.0145,0.325,0.0751
RBM28 C97 (UniProt Q9NW13),-0.0506,0.293,-0.428,-0.0815
RIPOR1 C925 (UniProt Q6ZS17),0.609,0.562,-0.0721,0.318
RANBP2 C2696 (UniProt P49792),0.211,0.191,0.0229,0.215
RECQL5 C457 (UniProt O94762),-0.0255,0.19,-0.162,0.353
RAP1B C118,-0.265,0.276,-0.609,0.316
RARS1 C312,-0.149,-0.154,0.531,0.112
RB1 C278 (UniProt P06400),-0.255,-0.34,0.723,0.205
RNASEH1 C191 (UniProt O60930),0.216,0.124,0.3,0.0976
RAI1 C1553 (UniProt Q7Z5J4),0.165,0.0514,-0.0362,-0.0119
RANBP2 C3040 (UniProt P49792),0.117,-0.132,-0.134,-0.0819

# Next part:

Target,log2 mean competition ratio ([1]; 50 µM),log2 mean competition ratio ([1]; 200 µM),log2 mean competition ratio ([2]; 50 µM),log2 mean competition ratio ([2]; 200 µM)
RENBP C249 (UniProt P51606),0.022,-0.194,-0.0389,0.325
RBFA C338 (UniProt Q8N0V3),-0.165,0.252,-0.331,0.419
RANBP2 C1243 (UniProt P49792),-0.276,-0.0787,-0.293,-0.167
RAPGEF1 C817 (UniProt Q13905),0.186,0.178,0.0862,0.19
RDH13 C30 (UniProt Q8NBN7),0.00102,-0.173,0.185,-0.174
RMND5A C25 (UniProt Q9H871),0.436,0.0424,-0.0183,0.0516
RB1CC1 C839 (UniProt Q8TDY2),0.0366,-0.393,0.264,-0.36
RANBP17 C1038 (UniProt Q9H2T7),–,-0.107,0.00858,0.0025
RESF1 C1491 (UniProt Q9HCM1),-0.0523,0.219,-0.147,0.234
RAI14 C101 (UniProt Q9P0K7),-0.177,-0.207,-0.0807,-0.0241
RAI1 C1015 (UniProt Q7Z5J4),0.00747,0.376,0.0455,0.396
RANBP2 C1196 (UniProt P49792),-0.349,0.305,-0.181,0.591
RBM5 C187 (UniProt P52756),-0.0555,-0.0936,-0.356,0.0422
RNASEH2B C7,-0.211,-0.00111,0.265,0.279
RAE1 C106 (UniProt P78406),-0.0694,-0.145,0.305,-0.147
RAI14 C935 (UniProt Q9P0K7),0.0044,-0.223,-0.0212,0.0587
RBM10 C219 (UniProt P98175),-0.19,0.0776,-0.316,0.196
RCC2 C428 (UniProt Q9P258),-0.0581,-0.302,0.0851,-0.0808
RICTOR C1576 (UniProt Q6R327),-0.231,-0.173,-0.0759,0.017
RANBP2 C3122 (UniProt P49792),-0.488,-0.138,-0.459,-0.165
RAP1GDS1 C454 (UniProt P52306),-0.0778,-0.307,0.238,-0.242
RIPOR1 C945 (UniProt Q6ZS17),0.108,-0.12,-0.126,-0.00629
RC3H2 C771 (UniProt Q9HBD1),0.115,0.323,0.223,0.274

Target,log2 mean competition ratio ([1]; 50 µM),log2 mean competition ratio ([1]; 200 µM),log2 mean competition ratio ([2]; 50 µM),log2 mean competition ratio ([2]; 200 µM)
RIN2 C802,–,-0.175,–,0.129
RASA1 C828 (UniProt P20936),-0.183,0.222,-0.304,0.0684
RBBP7 C166,-0.0957,0.152,-0.288,-0.0621
RBX1 C94 (UniProt P62877),-0.293,0.0633,0.121,0.0603
RANBP2 C1296 (UniProt P49792),-0.0738,-0.0826,-0.388,-0.0258
RDH10 C320 (UniProt Q8IZV5),–,0.396,0.628,0.207
RALGAPB C242 (UniProt Q86X10),0.195,-0.349,0.871,-0.172
RGP1 C208 (UniProt Q92546),–,0.164,0.158,0.101
RB1CC1 C853 (UniProt Q8TDY2),0.133,-0.0435,0.272,-0.198
RARS2 C74 (UniProt Q5T160),-0.0301,-0.143,0.0519,-0.181
RBM12B C204 (UniProt Q8IXT5),-0.0101,0.0668,-0.217,0.0787
RFC4 C141 (UniProt P35249),-0.219,-0.116,-0.103,-0.129
RAPGEF1 C328 (UniProt Q13905),-0.253,0.132,-0.0707,0.0832
RANGAP1 C82 (UniProt P46060),0.0344,0.497,-0.0151,0.265
RIC1 C818 (UniProt Q4ADV7),–,-0.317,0.544,-0.0787
RASA1 C906 (UniProt P20936),-0.0143,-0.287,-0.0304,-0.425
RBM5 C766 (UniProt P52756),0.0713,0.212,0.226,0.132
RAI14 C584 (UniProt Q9P0K7),-0.0408,-0.276,-0.0329,-0.253
RBBP6 C1566 (UniProt Q7Z6E9),0.059,0.0194,-0.018,0.125
RLF C1049 (UniProt Q13129),0.0649,0.18,-0.151,-0.219
RIOK2 C493 (UniProt Q9BVS4),0.282,-0.369,0.299,-0.33
REV1 C1106 (UniProt Q9UBZ9),0.0945,0.026,0.0691,-0.006

# — the supplement of paper PMC11732987, “Enantioselective OTUD7B fragment discovery through chemoproteomics screening and high-throughput optimisation” (Communications Chemistry, 2025)
